± gives the standard deviation of the averaged measurements. Some of the results follow. Repeats are few or missing, and single values can be far off.
system: RAW 264.7 macrophages infected with S. aureus JE2-lux; assay: host macrophage viability (CellTiter-Fluor) relative to DMSO vehicle; higher = more viable host cells; conditions: 10 µM; treatment time 4 h; gentamicin 50 µg/ml

| SMILES | host macrophage viability |
| --- | --- |
| CCOC(=O)CSC1=NS(=O)(=O)c2ccccc2N1 | 118% |
| O=C(CN1C(=O)c2ccccc2S1(=O)=O)NC1=NN(c2ccccc2)C(=O)C1 | 128% |
| CCc1nn(-c2ccccc2)c2nc(-c3ccccc3)nc(SCC(=O)NC(C)(C)C)c12 | 98.5% |
| O=C(O)COc1ccccc1/C=C1/SC(=S)N(NC(=O)c2ccco2)C1=O | 81.659 ± 0.0095% |
| CCOc1cccc(-c2cc(C(=O)N/N=C3/C(=O)Nc4ccccc43)[nH]n2)c1 | 94.2% |
| O=C(NN1C(=O)CSC1=S)c1c(F)cccc1F | 106 ± 18% |
| CCCc1cc(C(=O)NC(c2ccccc2)c2ccnn2C)[nH]n1 (stereo not drawn) | 112% |
| O=C(NCc1cccnc1)c1ccc(OC(F)F)cc1 | 125% |
| O=C(NCc1cccnc1)C(=O)NCC1OCCCN1S(=O)(=O)c1ccc(Cl)cc1 (stereo not drawn) | 119% |
| CCn1c(C)cc2cc(NS(=O)(=O)c3ccc4[nH]c(=O)[nH]c(=O)c4c3)ccc21 | 117% |
| Cc1cccc(OCc2nc(-c3ccc4c(c3)[nH]c(=O)c(=O)n4C(C)C)no2)c1 | 119% |
| O=C(Nc1nc2ccc(Br)cc2s1)c1ccc(N2C(=O)CCC2=O)cc1 | 118% |
| O=C(Nc1ccccc1Cl)c1cccn2c(-c3ccc(F)cc3)nnc12 | 115% |
| Cc1nc2ccc(S(=O)(=O)Nc3cccc(-c4nc5cccnc5s4)c3C)cc2s1 | 114 ± 5.2% |
| Cc1cccc(CSc2ncnc3[nH]cnc23)c1 | 99.8% |
| Cn1c2ccc(F)cc2c2nnc(SCC(=O)Nc3cccc(O)c3)nc21 | 98.6% |
| CN1CCN(c2nc(Nc3cccc(F)c3)c3cnn(-c4ccccc4)c3n2)CC1 | 101% |
| COc1ccc(-c2n[nH]c(SC(CC(=O)NCc3cccnc3)c3ccc(OC)cc3)n2)cc1 (stereo not drawn) | 119% |
| O=C(NCCc1c[nH]c2ccccc12)C(=O)NCC1OCCN1C(=O)c1ccc2c(c1)OCO2 (stereo not drawn) | 107% |
| COc1ccnc(Cn2nc3c4ccccc4nc(C(C)(C)C)n3c2=O)c1OC | 89.4% |
| Cc1nn(-c2nc(-c3ccc(F)cc3)cs2)c(O)c1CCC(=O)N1CCOCC1 | 119% |
| CCc1nn2c(=O)cc(CSc3nnc(-c4cccc(C)c4)o3)nc2s1 | 82.1% |
| O=C(NC(c1ccccc1)c1cccnc1)c1cc2c([nH]c1=O)CCCCC2 (stereo not drawn) | 111% |
| CC(=O)c1cccc(N/C=C(\C#N)c2nc(-c3cccc4ccccc34)cs2)c1 | 131% |
| COC(=O)c1c(NC(=O)CC2Nc3ccccc3NC2=O)sc2c1CCC(C)C2 (stereo not drawn) | 124% |
| Cc1nnc(SCC(=O)N2CCCCC2)n(N)c1=O | 131% |
| O=C(COc1ccc(Cl)cc1)Nc1nc2ccc3ccccc3c2s1 | 120% |
| COc1ccc2[nH]c3c(=O)n(CCCCC(=O)NCc4cccnc4)c(=S)[nH]c3c2c1 | 99.6% |

Two of the compounds above, with bars between the fields.
SMILES | host macrophage viability
CCOc1cccc(-c2cc(C(=O)N/N=C3/C(=O)Nc4ccccc43)[nH]n2)c1 | 94.2%
O=C(NCCc1c[nH]c2ccccc12)C(=O)NCC1OCCN1C(=O)c1ccc2c(c1)OCO2 (stereo not drawn) | 107%

— the supplement of paper PMC12578635
